± gives the standard deviation of the averaged measurements. This is a selection; strong and weak results do not stand in their true shares.
Compound: Nc1ncnc2c1ncn2[C@@H]1O[C@H](COP(=O)(O)OP(=O)(O)NP(=O)(O)O)[C@@H](O)[C@H]1O [adenylyl imidodiphosphate]
Test: NP40-soluble protein abundance relative to vehicle (solubility fold change) (ratio); higher = more soluble protein in presence of AMP-PNP
Summary of the method: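 Values are fold changes against the detergent-processed vehicle, based on vsn-normalised intensities. Jurkat crude lysate was treated at eight concentrations from 0.1 to 10 mM (10 min at room temperature, then 3 min at 37 °C), solubilised with 0.8% NP40 and benzonase, ultracentrifuged and analysed by TMT-labelled LC-MS/MS over three independent experiments.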

By UniProt entry, the sequences of proteins in these tests, tags left out. Where a name states a change or a piece, a line headed by the entry shows the natural chain unless it says otherwise.
UniProt Q5VWZ2: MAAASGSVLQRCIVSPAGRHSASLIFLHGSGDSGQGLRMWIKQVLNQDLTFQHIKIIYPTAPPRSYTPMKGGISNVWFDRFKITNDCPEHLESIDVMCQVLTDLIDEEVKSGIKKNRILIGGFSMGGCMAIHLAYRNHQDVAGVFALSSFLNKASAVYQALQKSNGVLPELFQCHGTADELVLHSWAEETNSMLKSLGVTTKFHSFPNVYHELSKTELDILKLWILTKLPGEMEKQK
UniProt Q6PI48: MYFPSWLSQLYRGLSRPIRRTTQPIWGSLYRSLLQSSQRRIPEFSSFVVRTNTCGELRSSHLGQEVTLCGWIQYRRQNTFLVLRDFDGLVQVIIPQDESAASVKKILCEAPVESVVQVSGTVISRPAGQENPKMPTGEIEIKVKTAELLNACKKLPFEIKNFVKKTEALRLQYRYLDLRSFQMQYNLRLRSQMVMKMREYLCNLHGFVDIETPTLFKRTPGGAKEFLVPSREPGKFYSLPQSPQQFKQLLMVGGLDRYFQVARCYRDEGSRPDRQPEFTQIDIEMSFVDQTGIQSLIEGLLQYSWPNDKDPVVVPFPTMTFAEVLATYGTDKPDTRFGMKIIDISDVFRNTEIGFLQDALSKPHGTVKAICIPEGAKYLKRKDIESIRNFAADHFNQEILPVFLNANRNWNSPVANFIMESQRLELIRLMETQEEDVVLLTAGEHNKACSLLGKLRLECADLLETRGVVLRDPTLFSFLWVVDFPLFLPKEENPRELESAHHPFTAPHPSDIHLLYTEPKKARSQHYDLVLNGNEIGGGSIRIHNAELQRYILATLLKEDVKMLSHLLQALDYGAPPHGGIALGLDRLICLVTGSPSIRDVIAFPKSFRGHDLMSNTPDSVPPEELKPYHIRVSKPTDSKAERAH
UniProt Q6P4A7: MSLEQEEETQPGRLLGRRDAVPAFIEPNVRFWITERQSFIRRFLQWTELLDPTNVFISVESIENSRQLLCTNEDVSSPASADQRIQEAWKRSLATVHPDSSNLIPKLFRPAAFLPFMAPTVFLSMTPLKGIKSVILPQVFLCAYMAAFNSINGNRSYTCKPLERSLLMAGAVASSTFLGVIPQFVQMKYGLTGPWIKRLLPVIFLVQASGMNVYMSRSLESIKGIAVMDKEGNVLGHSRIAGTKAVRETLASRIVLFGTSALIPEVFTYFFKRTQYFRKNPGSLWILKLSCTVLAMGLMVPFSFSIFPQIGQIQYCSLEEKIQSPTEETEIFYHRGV
UniProt Q6P6B7: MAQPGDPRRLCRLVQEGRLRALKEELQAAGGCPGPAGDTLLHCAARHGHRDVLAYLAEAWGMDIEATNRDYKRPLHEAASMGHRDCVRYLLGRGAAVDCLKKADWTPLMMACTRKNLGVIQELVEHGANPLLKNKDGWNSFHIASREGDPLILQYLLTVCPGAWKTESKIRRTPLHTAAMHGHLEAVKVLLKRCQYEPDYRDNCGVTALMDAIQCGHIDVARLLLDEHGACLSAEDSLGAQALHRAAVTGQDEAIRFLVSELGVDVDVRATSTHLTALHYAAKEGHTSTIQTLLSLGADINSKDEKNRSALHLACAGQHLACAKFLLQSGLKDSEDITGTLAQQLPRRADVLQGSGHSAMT
UniProt Q5VUA4: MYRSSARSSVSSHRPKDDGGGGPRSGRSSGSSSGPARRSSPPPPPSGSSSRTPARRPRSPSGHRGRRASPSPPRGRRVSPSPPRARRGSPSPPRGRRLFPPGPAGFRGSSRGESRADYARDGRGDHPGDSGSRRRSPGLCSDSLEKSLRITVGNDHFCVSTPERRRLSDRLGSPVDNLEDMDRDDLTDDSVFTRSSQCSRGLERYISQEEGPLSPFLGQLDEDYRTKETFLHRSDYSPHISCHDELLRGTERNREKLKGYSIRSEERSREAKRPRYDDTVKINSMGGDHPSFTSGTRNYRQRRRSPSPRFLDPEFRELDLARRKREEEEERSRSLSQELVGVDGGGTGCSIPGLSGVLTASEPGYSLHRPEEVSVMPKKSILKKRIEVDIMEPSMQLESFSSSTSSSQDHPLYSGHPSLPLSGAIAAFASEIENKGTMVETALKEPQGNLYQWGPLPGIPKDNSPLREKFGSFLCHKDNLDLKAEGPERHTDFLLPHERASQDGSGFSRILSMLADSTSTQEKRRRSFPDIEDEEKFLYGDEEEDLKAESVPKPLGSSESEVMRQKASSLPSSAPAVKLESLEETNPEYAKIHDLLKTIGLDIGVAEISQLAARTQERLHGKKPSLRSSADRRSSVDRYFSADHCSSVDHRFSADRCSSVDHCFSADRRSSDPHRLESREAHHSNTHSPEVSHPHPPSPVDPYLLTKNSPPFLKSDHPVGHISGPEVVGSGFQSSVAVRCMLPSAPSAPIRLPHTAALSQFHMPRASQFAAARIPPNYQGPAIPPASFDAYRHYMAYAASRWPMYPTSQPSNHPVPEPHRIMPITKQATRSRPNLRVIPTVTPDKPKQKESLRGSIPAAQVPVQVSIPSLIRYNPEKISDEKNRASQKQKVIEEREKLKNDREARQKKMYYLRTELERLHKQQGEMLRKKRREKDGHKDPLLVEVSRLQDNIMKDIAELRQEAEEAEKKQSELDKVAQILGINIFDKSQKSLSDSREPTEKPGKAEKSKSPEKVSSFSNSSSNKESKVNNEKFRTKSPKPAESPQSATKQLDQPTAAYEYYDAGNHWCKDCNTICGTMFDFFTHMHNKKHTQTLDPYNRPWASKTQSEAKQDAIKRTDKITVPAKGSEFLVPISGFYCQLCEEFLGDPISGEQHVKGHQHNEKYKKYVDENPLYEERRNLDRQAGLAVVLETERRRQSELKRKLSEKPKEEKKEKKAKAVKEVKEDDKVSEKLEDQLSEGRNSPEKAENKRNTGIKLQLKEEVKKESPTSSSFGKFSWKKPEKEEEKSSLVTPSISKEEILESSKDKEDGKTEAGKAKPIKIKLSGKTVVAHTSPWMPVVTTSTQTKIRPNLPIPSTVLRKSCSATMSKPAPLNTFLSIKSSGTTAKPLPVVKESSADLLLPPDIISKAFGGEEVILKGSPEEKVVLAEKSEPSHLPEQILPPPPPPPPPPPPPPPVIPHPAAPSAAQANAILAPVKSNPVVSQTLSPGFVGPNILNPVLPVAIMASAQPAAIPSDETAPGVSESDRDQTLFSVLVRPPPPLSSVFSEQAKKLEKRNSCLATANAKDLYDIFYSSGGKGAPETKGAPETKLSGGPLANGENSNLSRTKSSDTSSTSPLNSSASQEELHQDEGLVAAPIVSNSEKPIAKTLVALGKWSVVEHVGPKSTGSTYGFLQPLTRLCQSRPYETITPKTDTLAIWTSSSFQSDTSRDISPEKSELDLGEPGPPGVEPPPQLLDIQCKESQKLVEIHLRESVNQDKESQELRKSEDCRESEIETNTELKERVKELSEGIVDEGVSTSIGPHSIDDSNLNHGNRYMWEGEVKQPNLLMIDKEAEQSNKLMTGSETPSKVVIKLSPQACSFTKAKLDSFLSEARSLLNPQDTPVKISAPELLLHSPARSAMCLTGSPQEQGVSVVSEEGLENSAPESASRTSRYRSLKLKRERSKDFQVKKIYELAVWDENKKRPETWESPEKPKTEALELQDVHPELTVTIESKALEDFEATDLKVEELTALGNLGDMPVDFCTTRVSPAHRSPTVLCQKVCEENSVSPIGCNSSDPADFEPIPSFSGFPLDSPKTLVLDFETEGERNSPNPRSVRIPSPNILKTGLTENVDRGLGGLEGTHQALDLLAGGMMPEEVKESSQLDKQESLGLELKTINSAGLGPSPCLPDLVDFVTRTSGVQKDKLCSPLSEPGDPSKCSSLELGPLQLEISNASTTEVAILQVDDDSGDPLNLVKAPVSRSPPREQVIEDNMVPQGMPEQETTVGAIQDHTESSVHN
UniProt Q6Y7W6: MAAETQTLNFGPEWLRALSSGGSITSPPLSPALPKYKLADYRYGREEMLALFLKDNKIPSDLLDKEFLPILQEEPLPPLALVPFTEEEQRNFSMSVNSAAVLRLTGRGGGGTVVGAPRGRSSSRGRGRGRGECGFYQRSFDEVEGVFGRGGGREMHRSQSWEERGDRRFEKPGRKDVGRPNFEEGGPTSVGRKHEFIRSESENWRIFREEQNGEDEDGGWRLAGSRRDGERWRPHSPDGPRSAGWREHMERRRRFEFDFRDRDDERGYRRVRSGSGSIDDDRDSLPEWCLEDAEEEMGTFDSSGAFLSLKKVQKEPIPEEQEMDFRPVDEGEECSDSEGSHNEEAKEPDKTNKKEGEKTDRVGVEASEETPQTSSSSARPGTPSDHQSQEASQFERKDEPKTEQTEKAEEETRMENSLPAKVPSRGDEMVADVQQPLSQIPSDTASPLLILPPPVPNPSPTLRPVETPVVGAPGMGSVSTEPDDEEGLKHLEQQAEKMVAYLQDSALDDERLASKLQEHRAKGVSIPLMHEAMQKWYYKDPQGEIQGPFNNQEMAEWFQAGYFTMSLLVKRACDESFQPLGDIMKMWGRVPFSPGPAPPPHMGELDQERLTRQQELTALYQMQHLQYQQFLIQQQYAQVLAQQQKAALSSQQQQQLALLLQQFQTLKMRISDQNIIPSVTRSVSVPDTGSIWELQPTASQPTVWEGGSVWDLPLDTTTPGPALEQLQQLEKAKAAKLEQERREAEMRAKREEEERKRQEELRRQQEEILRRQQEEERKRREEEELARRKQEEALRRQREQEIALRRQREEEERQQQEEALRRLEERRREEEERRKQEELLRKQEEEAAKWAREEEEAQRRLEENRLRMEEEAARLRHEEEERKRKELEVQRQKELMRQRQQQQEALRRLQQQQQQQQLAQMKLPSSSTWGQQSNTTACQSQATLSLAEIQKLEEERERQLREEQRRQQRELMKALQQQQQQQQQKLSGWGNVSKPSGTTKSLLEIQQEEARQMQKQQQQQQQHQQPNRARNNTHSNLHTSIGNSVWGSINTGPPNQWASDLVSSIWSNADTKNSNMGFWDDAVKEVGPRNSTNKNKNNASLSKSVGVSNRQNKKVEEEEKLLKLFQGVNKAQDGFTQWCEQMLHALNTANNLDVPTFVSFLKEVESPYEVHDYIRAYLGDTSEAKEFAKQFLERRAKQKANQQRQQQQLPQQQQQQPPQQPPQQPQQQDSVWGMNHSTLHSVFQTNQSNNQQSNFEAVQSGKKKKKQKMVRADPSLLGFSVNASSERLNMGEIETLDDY
UniProt Q6ZSZ5: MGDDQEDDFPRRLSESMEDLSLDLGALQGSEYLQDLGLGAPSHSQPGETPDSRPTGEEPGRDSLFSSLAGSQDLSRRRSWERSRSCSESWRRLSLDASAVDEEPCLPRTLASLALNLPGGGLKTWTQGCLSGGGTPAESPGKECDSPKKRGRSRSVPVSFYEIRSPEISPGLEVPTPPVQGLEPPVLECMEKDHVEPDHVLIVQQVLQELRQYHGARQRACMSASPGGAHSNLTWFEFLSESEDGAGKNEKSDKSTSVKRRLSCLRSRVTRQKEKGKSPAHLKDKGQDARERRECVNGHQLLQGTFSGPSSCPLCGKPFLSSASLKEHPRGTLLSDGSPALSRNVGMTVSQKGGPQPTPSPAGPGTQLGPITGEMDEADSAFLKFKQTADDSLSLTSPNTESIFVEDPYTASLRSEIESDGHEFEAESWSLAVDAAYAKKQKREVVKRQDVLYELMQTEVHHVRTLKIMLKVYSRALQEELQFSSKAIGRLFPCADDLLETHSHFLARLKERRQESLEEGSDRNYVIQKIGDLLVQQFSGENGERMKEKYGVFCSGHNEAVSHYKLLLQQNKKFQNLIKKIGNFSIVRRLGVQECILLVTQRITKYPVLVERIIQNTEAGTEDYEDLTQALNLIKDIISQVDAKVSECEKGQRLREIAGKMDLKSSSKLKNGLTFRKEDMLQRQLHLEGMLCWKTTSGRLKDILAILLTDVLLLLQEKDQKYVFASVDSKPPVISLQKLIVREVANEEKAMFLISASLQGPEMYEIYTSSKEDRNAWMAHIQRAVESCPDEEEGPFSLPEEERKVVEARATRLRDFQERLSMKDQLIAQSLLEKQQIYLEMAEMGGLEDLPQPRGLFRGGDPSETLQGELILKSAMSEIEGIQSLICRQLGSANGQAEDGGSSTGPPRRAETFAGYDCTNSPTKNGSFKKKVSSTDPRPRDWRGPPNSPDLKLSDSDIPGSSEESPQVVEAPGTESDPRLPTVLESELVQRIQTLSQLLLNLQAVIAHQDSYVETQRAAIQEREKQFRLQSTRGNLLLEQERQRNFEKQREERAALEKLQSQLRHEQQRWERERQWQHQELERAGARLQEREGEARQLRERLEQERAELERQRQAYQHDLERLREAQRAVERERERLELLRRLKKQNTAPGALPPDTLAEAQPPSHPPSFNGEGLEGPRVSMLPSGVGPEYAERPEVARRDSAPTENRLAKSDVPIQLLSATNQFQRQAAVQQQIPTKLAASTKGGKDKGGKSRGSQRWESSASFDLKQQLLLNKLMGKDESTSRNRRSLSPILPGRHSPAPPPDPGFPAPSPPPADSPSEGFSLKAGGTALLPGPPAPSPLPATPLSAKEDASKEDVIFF

| Target | NP40-soluble protein abundance (concentration: 1mM) | NP40-soluble protein abundance (concentration: 2mM) | NP40-soluble protein abundance (concentration: 4mM) | NP40-soluble protein abundance (concentration: 6mM) | NP40-soluble protein abundance (concentration: 8mM) | NP40-soluble protein abundance (concentration: 10mM) |
| --- | --- | --- | --- | --- | --- | --- |
| CBLL1 (UniProt Q75N03) | 1 ± 0.01 | 1.04 ± 0.022 | 1.03 ± 0.045 | 0.995 ± 0.015 | 0.976 ± 0.014 | 0.985 ± 0.016 |
| LYPLAL1 (UniProt Q5VWZ2) | 0.967 ± 0.026 | 0.932 ± 0.062 | 1.02 ± 0.023 | 0.973 ± 0.03 | 1.03 ± 0.028 | 1 ± 0.025 |
| UniProt Q6ZMG9 and related entries | 0.986 ± 0.04 | 0.978 ± 0.058 | 1.02 ± 0.032 | 1.03 ± 0.11 | 1.03 ± 0.098 | 1.06 ± 0.07 |
| UniProt Q6Y1H2 | 0.994 ± 0.02 | 0.97 ± 0.039 | 0.947 ± 0.027 | 0.9917 ± 0.0076 | 0.984 ± 0.036 | 0.976 ± 0.027 |
| DNMBP (UniProt Q6XZF7) | 1.03 ± 0.027 | 1.05 ± 0.011 | 1.05 ± 0.055 | 1.01 ± 0.011 | 1.01 ± 0.013 | 1.03 ± 0.019 |
| UniProt Q6IN85 | 1.004 ± 0.0094 | 1.013 ± 0.0098 | 1.002 ± 0.0077 | 0.991 ± 0.042 | 0.985 ± 0.013 | 0.98 ± 0.029 |
| DARS2 (UniProt Q6PI48) | 0.939 ± 0.049 | 0.861 ± 0.12 | 0.924 ± 0.016 | 0.918 ± 0.036 | 0.942 ± 0.021 | 0.89 ± 0.012 |
| UniProt Q6UWE0 and related entries | 1 ± 0.019 | 0.974 ± 0.044 | 1.01 ± 0.017 | 0.977 ± 0.032 | 0.971 ± 0.028 | 0.996 ± 0.042 |
| ADNP2 (UniProt Q6IQ32) | 1 ± 0.043 | 1.03 ± 0.02 | 1.06 ± 0.035 | 1.04 ± 0.053 | 1.03 ± 0.029 | 1.05 ± 0.058 |
| UniProt Q7Z4G4 and related entries | 0.972 ± 0.07 | 0.963 ± 0.0081 | 0.96 ± 0.04 | 0.962 ± 0.065 | 0.941 ± 0.043 | 0.951 ± 0.044 |
| LIN54 (UniProt Q6MZP7) | 1.03 ± 0.036 | 1.09 ± 0.019 | 1.08 ± 0.038 | 1.06 ± 0.051 | 1.06 ± 0.043 | 1.11 ± 0.038 |
| UniProt Q5VIR6-4 | 1.04 ± 0.041 | 1.03 ± 0.042 | 1.04 ± 0.045 | 1.02 ± 0.043 | 0.994 ± 0.044 | 1.02 ± 0.063 |
| CTR9 (UniProt Q6PD62) | 0.977 ± 0.029 | 0.912 ± 0.074 | 0.976 ± 0.018 | 0.9708 ± 0.0065 | 0.977 ± 0.028 | 0.958 ± 0.035 |
| PPP2R2D (UniProt Q66LE6) | 0.965 ± 0.018 | 0.934 ± 0.031 | 0.978 ± 0.041 | 0.9524 ± 0.0035 | 0.949 ± 0.024 | 0.921 ± 0.012 |
| FAM160B1 (UniProt Q5W0V3) | 1.06 ± 0.078 | 0.992 ± 0.087 | 1.02 ± 0.073 | 0.9309 ± 0.004 | 0.957 ± 0.038 | 0.939 ± 0.082 |
| UniProt Q6P4A7 and related entries | 0.9841 ± 0.0091 | 0.9884 ± 0.0064 | 0.98 ± 0.02 | 0.995 ± 0.0066 | 0.991 ± 0.026 | 0.983 ± 0.016 |
| ANKRD16 (UniProt Q6P6B7) | 0.993 ± 0.024 | 0.97 ± 0.05 | 0.991 ± 0.03 | 0.993 ± 0.025 | 0.983 ± 0.013 | 0.976 ± 0.043 |
| ZNF318 (UniProt Q5VUA4) | 0.979 ± 0.076 | 1.04 ± 0.028 | 0.976 ± 0.063 | 0.967 ± 0.089 | 0.92 ± 0.072 | 0.967 ± 0.1 |
| UniProt Q6ZNJ1 and related entries | 0.993 ± 0.019 | 0.954 ± 0.066 | 0.999 ± 0.01 | 0.964 ± 0.017 | 0.974 ± 0.013 | 0.961 ± 0.032 |
| UniProt Q5W0U4 | 0.9866 ± 0.0019 | 0.945 ± 0.033 | 0.9665 ± 0.0068 | 0.959 ± 0.021 | 0.961 ± 0.024 | 0.95772 ± 0.00048 |
| PACS1 (UniProt Q6VY07) | 1.02 ± 0.03 | 1.01 ± 0.03 | 1.023 ± 0.0059 | 0.984 ± 0.016 | 1.02 ± 0.021 | 1.03 ± 0.023 |
| UniProt Q6Y7W6 and related entries | 1.02 ± 0.045 | 1.09 ± 0.057 | 1.06 ± 0.039 | 1.07 ± 0.058 | 1.05 ± 0.043 | 1.11 ± 0.045 |
| UniProt Q6ZRI6 and related entries | 0.9914 ± 0.0011 | 1.01 ± 0.044 | 1.01 ± 0.018 | 0.992 ± 0.029 | 1 ± 0.018 | 0.99766 ± 5.3e-05 |
| UniProt Q6ZSZ5 | 1.02 ± 0.019 | 1.05 ± 0.03 | 1.04 ± 0.054 | 1.01 ± 0.022 | 0.986 ± 0.053 | 1.02 ± 0.048 |
| UniProt Q5VW36 and related entries | 0.955 ± 0.016 | 0.915 ± 0.049 | 0.957 ± 0.03 | 0.935 ± 0.03 | 0.952 ± 0.025 | 0.936 ± 0.035 |
| UniProt Q6GYQ0 and related entries | 1 ± 0.027 | 0.986 ± 0.021 | 0.966 ± 0.036 | 0.925 ± 0.058 | 0.901 ± 0.026 | 0.92 ± 0.051 |
